# PubChem BioAssay AID248 (DTP/NCI, 2004)
# The list is a part of this screen's results and no random one: it is rich in T/C values a quarter to a half above the control, in often repeated tests (any T/C) and in doses without a T/C. Other doses and runs of a compound stand elsewhere. T/C gives the treated animals as a percentage of the vehicle group. Some entries give survivors of the animals treated and no T/C: the source files T/C as zero there, which appears to mark a toxic dose or a test without result, not a measured value. Some survivor counts are full or nearly so, which does not show that the dose was tolerated: the source hardly ever lists a survival T/C far under the control, and the zero likely stands for such cases as well. Counts of survivors are from the toxicity check (mostly the fifth day) where no day follows; animals may have died later. Schedules are NCI's codes, taken here to give the interval after Q, in days (D) or hours (H), and the number of doses after X. Some schedule codes hold Z or #, which are not explained here. Some molecules as drawn cover several salts, stereoisomers or complexes of the source; a dose is that of the sample tested. Where survival is the endpoint, this PubChem deposit counts one and a half times the control or more as active, and values a quarter to a half above the control carry no call in these data; other NCI protocols may use other cut-offs. Some T/C values are followed by the survivors on the day toxicity was checked, most often the fifth; without a count, all were alive then. Some entries were tested several times; the values are given in rising order.
# Tested on: L1210 leukemia ip in BDF1 mice, survival T/C
# Assay: NCI In Vivo Anticancer Drug Screen. Data for tumor model L1210 Leukemia (intraperitoneal) in B6D2F1 (BDF1) mice
# Conditions: T/C endpoint: mean survival time, higher T/C = longer survival
# [1] = dose: 200.0 mg/kg/injection, schedule: Q01DX009 (ip), vehicle: saline with Tween-80
# [2] = dose: 400.0 mg/kg/injection, schedule: Q01DX001 (ip), vehicle: carboxymethylcellulose (CMC)
# [3] = dose: 400.0 mg/kg/injection, schedule: Q04DX003 (ip), vehicle: Klucel (hydroxypropylcellulose) (HPC)
# [4] = dose: 200.0 mg/kg/injection, schedule: Q01DX001 (ip), vehicle: saline
# [5] = dose: 400.0 mg/kg/injection, schedule: Q01DX001 (ip), vehicle: saline
# [6] = dose: 200.0 mg/kg/injection, schedule: Q04DX003 (ip), vehicle: saline
# [7] = dose: 400.0 mg/kg/injection, schedule: Q04DX003 (ip), vehicle: saline
# [8] = dose: 400.0 mg/kg/injection, schedule: Q04DX003 (ip), vehicle: saline with Tween-80
# [9] = dose: 400.0 mg/kg/injection, schedule: Q01DX001 (ip), vehicle: other
# [10] = dose: 100.0 mg/kg/injection, schedule: Q01DX009 (ip), vehicle: saline with Tween-80
# [11] = dose: 600.0 mg/kg/injection, schedule: Q01DX009 (ip), vehicle: saline
smiles,measurement,setting,value
Nc1nccs1,survivor count,"dose: 25.0 mg/kg/injection, schedule: Q04DX002 (ip), vehicle: saline",1 of 3
same,survivor count,"dose: 50.0 mg/kg/injection, schedule: Q04DX002 (ip), vehicle: saline",0 of 3
same,survivor count,"dose: 100.0 mg/kg/injection, schedule: Q04DX002 (ip), vehicle: saline",0 of 3
O=C(COc1cc(Cl)c(Cl)cc1Cl)OC(=O)COc1cc(Cl)c(Cl)cc1Cl,survivor count,"dose: 400.0 mg/kg/injection, schedule: Q04DX002 (ip), vehicle: Klucel (hydroxypropylcellulose) (HPC)",3 of 3
O=C(Nc1ccc(C2=NCCN2)cc1)c1ccc(CNc2ccc(C3=NCCN3)cc2)cc1,T/C,"dose: 37.0 mg/kg/injection, schedule: Q01DX Z (ip), vehicle: water",145 % of control
c1cc(C2OCCO2)cs1,survivor count,[1],3 of 3
CCC(CC)(CCN(C)C)c1ccccc1,survivor count,[2],0 of 4
CSc1ccc(OC(=O)Nc2cccc(F)c2)cc1,T/C,[3],134 % of control
Cn1cccc1/C=C/[N+](=O)[O-],survivor count,[4],4 of 4
same,survivor count,[5],2 of 4
O=C(OCCN1CCCC1)C(c1ccccc1)C1(O)CCCC1 (configuration not stated),survivor count,[6],1 of 6
same,survivor count,[7],0 of 6
O=C1CCC(C(=O)O)N1 (configuration not stated),survivor count,[8],0 of 6
N#CCCSC(=N)N,survivor count,[4],2 of 6
same,survivor count,[5],0 of 6
CN(C)/N=N/c1nc[nH]c1C(=O)NCCc1ccccc1,survivor count,[9],0 of 6
Clc1ccc(COC(Cn2ccnc2)c2ccc(Cl)cc2Cl)cc1 (configuration not stated),survivor count,"dose: 100.0 mg/kg/injection, schedule: Q04DX002 (ip), vehicle: DMSO",1 of 3
same,survivor count,"dose: 200.0 mg/kg/injection, schedule: Q04DX002 (ip), vehicle: DMSO",1 of 3
same,survivor count,"dose: 400.0 mg/kg/injection, schedule: Q04DX002 (ip), vehicle: DMSO",0 of 3
Nc1ncnc2c1ncn2C1OC(CO)C(O)C1O (configuration not stated),survivor count,"dose: 60.0 mg/kg/injection, schedule: Q#A X012 (ip), vehicle: methylcellulose (MC)",3 of 7
same,T/C,"dose: 110.0 mg/kg/injection, schedule: Q03HX024 (ip), vehicle: saline with Tween-80",133 % of control
same,T/C,"dose: 160.0 mg/kg/injection, schedule: Q03HX024 (ip), vehicle: saline with Tween-80",135 % of control
same,survivor count,[4],0 of 3
same,T/C,"dose: 200.0 mg/kg/injection, schedule: Q03HX024 (ip), vehicle: saline with Tween-80",138 % of control
same,T/C,"dose: 240.0 mg/kg/injection, schedule: Q03HX024 (ip), vehicle: saline with Tween-80",142 and 143 % of control
same,T/C,"dose: 300.0 mg/kg/injection, schedule: Q03HX024 (ip), vehicle: saline with Tween-80",145 % of control
same,survivor count,[5],0 of 3
same,T/C,"dose: 400.0 mg/kg/injection, schedule: Q01DX009 (ip), vehicle: carboxymethylcellulose (CMC)",128 % of control
same,T/C,"dose: 400.0 mg/kg/injection, schedule: Q01DX009 (ip), vehicle: saline with Tween-80",135 % of control
same,T/C,"dose: 400.0 mg/kg/injection, schedule: Q03HX024 (ip), vehicle: saline with Tween-80",133 % of control
same,T/C,"dose: 600.0 mg/kg/injection, schedule: Q01DX009 (ip), vehicle: carboxymethylcellulose (CMC)",126 % of control
same,T/C,"dose: 600.0 mg/kg/injection, schedule: Q01DX009 (ip), vehicle: saline with Tween-80",132 % of control
same,survivor count,"dose: 1200.0 mg/kg/injection, schedule: Q01DX009 (ip), vehicle: saline",1 of 6
CCC(C)NC(=O)Nc1cccc(Cl)c1C (configuration not stated),survivor count,[1],6 of 6
C=CCSc1cccc(Cl)c1,survivor count,[5],3 of 6
CCC(=O)c1ccc2c(c1)N(CCCN(C)C)c1ccccc1S2,survivor count,[10],3 of 6
C[NH-].C[NH-].[I][Pt+2][I],T/C,"dose: 25.0 mg/kg/injection, schedule: Q04DX003 (ip), vehicle: other",132 % of control
same,T/C,"dose: 100.0 mg/kg/injection, schedule: Q01DX001 (ip), vehicle: other",127 % of control
same,survivor count,"dose: 100.0 mg/kg/injection, schedule: Q04DX003 (ip), vehicle: other",4 of 6
same,survivor count,"dose: 150.0 mg/kg/injection, schedule: Q01DX001 (ip), vehicle: other",1 of 6
same,survivor count,"dose: 200.0 mg/kg/injection, schedule: Q01DX001 (ip), vehicle: other",0 of 6
same,survivor count,[9],0 of 6
Cc1ccc2c(c1)CCCN2C=O,survivor count,[8],2 of 6
CN(C)CCSCCN1c2ccccc2Sc2ccc(Cl)cc21,survivor count,[6],1 of 6
same,survivor count,[7],0 of 6
CCOc1ccc(Nc2c3ccccc3nc3ccccc23)cc1,T/C,"dose: 44.0 mg/kg/injection, schedule: Q01DX009 (ip), vehicle: saline with Tween-80",139 % of control
same,survivor count,[10],6 of 6
same,survivor count,"dose: 150.0 mg/kg/injection, schedule: Q01DX009 (ip), vehicle: saline with Tween-80",4 of 6
CP(c1ccccc1)c1ccccc1,survivor count,"dose: 200.0 mg/kg/injection, schedule: Q01DX009 (ip), vehicle: Klucel (hydroxypropylcellulose) (HPC)",6 of 6
same,survivor count,[3],1 of 6
CCN(CC)CCOC(=O)c1[nH]cnc1/N=N/N(C)C1CCCCC1,survivor count,[9],0 of 4
c1ccc2c(c1)CCC1NC21 (configuration not stated),survivor count,[2],0 of 4
CC1(/C=N\NC(N)=O)CC2C=CC1C2 (configuration not stated),survivor count,[3],3 of 6
NC(=O)C1C=CCC1 (configuration not stated),survivor count,"dose: 100.0 mg/kg/injection, schedule: Q04DX002 (ip), vehicle: saline with Tween-80",2 of 3
same,survivor count,"dose: 200.0 mg/kg/injection, schedule: Q04DX002 (ip), vehicle: saline with Tween-80",0 of 3
same,survivor count,"dose: 400.0 mg/kg/injection, schedule: Q04DX002 (ip), vehicle: saline with Tween-80",0 of 3
CCCCC(=O)N1CCCCC1,survivor count,"dose: 400.0 mg/kg/injection, schedule: Q04DX002 (ip), vehicle: carboxymethylcellulose (CMC)",0 of 3
CN(O)C(N)=O,T/C,"dose: 12.5 mg/kg/injection, schedule: Q03HX024 (ip), vehicle: saline",125 % of control
same,T/C,"dose: 23.0 mg/kg/injection, schedule: Q01DX009 (ip), vehicle: saline",128 % of control
same,T/C,"dose: 53.0 mg/kg/injection, schedule: Q01DX009 (ip), vehicle: saline",132 and 138 % of control
same,T/C,"dose: 76.0 mg/kg/injection, schedule: Q01DX009 (ip), vehicle: saline",144 % of control
same,T/C,"dose: 79.0 mg/kg/injection, schedule: Q01DX009 (ip), vehicle: saline",140 % of control
same,survivor count,"dose: 100.0 mg/kg/injection, schedule: Q03HX024 (ip), vehicle: saline",8 of 10
same,T/C,"dose: 116.0 mg/kg/injection, schedule: Q01DX009 (ip), vehicle: saline",135 and 144 % of control
same,T/C,"dose: 118.0 mg/kg/injection, schedule: Q01DX009 (ip), vehicle: saline",145 % of control
same,T/C,"dose: 175.0 mg/kg/injection, schedule: Q04DX003 (ip), vehicle: saline",125 % of control
same,T/C,"dose: 178.0 mg/kg/injection, schedule: Q01DX009 (ip), vehicle: saline",146 % of control
same,T/C,"dose: 265.0 mg/kg/injection, schedule: Q01DX009 (ip), vehicle: saline","98, 110, 115 [5 of 6 alive], 149 % of control"
same,T/C,"dose: 265.0 mg/kg/injection, schedule: Q04DX003 (ip), vehicle: saline",127 % of control
same,T/C,"dose: 400.0 mg/kg/injection, schedule: Q01DX009 (ip), vehicle: saline","88, 101 [5 of 6 alive], 115 [9 of 10 alive], 124 [5 of 6 alive], 125, 174, 185 % of control"
same,T/C,[7],127 % of control
same,T/C,[11],"90, 94, 110, 124 % of control"
same,survivor count,[11],6 of 6
same,T/C,"dose: 600.0 mg/kg/injection, schedule: Q04DX003 (ip), vehicle: saline",136 and 147 % of control
c1ccc([P+](Cc2ccc3ccccc3n2)(c2ccccc2)c2ccccc2)cc1,survivor count,"dose: 50.0 mg/kg/injection, schedule: Q01DX009 (ip), vehicle: saline",0 of 3
same,survivor count,"dose: 100.0 mg/kg/injection, schedule: Q01DX009 (ip), vehicle: saline",0 of 3
same,survivor count,"dose: 200.0 mg/kg/injection, schedule: Q01DX009 (ip), vehicle: saline",0 of 3
